Publication PMC2246272
No constants are given. Whether binding was seen depends on the method and setting. In cells and extracts the contact can be indirect. These calls come from enrichment with a bait or labelling near it, and not all partners need be listed. Sequences can lack the tags named with a protein.

Biological target: T1, Suv39h1 (Suppressor of variegation 39h1), HA-FLAG-tagged (human) (UniProt O43463)
T1 sequence: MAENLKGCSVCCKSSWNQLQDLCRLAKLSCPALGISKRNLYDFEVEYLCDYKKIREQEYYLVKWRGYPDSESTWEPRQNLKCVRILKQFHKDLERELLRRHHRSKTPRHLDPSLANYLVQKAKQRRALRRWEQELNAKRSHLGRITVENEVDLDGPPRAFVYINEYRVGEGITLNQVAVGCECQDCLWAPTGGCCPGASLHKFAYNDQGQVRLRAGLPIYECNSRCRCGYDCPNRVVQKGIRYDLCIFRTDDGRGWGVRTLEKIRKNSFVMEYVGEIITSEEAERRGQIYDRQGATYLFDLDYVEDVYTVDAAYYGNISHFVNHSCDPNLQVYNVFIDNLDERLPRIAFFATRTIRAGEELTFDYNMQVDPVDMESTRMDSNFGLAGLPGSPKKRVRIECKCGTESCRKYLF
Assay: affinity purification with mass spectrometry; double immunopurification (anti-FLAG agarose, FLAG peptide elution, then anti-HA agarose, HA peptide elution) of HA-FLAG-Suv39h1 or HA-FLAG-G9a from micrococcal nuclease-digested HeLa nuclei (primarily mononucleosomes); eluate resolved on NuPAGE gel, histone bands propionylated, trypsin-digested and read by ESI ion-trap MS/MS; other bands identified by mass spectrometry; control: cell line with empty vector

With macro-H2A (human (endogenous in HeLa)) the binding was “binds”.
